# These are yes or no findings as the source states them, for the method shown. In cells and extracts the contact can be indirect. Here binding means that the protein was enriched with, or labelled near, the bait; the list need not be complete. For some of these results: Tags and fused reporters may be left off the sequences shown.
# Chains of the proteins cited; added tags and fusions are not shown.
# UniProt Q69ZR9: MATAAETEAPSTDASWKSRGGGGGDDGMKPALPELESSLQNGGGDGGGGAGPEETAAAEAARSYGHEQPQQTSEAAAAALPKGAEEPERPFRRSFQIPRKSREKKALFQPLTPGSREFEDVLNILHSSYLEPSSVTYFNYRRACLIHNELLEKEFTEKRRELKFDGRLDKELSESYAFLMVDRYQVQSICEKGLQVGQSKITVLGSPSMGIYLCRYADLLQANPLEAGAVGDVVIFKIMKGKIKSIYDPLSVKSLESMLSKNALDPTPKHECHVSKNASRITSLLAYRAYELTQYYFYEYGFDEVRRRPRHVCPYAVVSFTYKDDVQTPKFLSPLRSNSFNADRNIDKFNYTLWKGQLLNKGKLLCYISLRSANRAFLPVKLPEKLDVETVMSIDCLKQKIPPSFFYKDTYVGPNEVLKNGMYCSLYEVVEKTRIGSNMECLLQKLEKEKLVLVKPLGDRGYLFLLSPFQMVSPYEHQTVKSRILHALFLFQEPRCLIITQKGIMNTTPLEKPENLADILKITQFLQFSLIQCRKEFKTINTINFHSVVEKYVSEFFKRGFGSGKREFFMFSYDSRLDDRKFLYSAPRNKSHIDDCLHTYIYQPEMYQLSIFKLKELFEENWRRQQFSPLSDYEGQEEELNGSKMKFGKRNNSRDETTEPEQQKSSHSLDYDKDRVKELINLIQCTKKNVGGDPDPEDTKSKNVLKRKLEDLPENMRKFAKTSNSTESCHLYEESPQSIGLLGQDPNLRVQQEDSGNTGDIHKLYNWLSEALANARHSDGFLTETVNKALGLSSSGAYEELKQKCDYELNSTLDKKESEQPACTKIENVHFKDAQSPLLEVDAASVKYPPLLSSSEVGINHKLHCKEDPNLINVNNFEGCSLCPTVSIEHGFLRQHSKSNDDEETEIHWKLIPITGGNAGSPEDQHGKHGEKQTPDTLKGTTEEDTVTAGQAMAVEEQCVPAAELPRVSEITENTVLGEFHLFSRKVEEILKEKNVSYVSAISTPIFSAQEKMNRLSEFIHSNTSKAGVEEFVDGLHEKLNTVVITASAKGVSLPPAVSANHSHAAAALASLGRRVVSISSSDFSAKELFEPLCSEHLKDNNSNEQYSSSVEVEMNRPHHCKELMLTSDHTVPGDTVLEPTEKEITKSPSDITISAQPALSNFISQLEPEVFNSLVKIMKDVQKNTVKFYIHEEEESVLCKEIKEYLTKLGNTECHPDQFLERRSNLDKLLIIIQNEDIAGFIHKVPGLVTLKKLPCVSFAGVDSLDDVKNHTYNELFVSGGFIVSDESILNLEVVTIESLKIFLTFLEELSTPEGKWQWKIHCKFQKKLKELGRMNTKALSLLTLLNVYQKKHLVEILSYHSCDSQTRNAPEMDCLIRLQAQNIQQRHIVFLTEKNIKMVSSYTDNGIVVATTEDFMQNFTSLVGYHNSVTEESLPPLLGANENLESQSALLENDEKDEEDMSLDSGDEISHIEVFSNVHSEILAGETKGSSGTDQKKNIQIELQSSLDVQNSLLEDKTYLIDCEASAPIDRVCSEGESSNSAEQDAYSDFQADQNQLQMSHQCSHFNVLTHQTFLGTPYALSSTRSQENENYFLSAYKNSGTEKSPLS
# UniProt Q8BFQ4: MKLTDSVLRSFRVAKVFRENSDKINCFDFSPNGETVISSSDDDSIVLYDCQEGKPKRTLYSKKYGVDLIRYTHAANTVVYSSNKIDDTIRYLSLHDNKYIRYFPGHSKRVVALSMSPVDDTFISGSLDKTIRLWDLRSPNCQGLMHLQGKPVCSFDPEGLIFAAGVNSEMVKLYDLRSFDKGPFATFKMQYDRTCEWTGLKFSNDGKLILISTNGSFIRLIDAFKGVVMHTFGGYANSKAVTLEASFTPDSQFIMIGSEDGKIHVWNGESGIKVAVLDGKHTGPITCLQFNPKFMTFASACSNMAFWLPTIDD
# T1: MPP8-AGH (MPP8 endogenously tagged at the C terminus with AID-GFP-HAx3) (mouse (endogenous in R1 mESCs)) (UniProt Q3TYA6)
# T1 sequence: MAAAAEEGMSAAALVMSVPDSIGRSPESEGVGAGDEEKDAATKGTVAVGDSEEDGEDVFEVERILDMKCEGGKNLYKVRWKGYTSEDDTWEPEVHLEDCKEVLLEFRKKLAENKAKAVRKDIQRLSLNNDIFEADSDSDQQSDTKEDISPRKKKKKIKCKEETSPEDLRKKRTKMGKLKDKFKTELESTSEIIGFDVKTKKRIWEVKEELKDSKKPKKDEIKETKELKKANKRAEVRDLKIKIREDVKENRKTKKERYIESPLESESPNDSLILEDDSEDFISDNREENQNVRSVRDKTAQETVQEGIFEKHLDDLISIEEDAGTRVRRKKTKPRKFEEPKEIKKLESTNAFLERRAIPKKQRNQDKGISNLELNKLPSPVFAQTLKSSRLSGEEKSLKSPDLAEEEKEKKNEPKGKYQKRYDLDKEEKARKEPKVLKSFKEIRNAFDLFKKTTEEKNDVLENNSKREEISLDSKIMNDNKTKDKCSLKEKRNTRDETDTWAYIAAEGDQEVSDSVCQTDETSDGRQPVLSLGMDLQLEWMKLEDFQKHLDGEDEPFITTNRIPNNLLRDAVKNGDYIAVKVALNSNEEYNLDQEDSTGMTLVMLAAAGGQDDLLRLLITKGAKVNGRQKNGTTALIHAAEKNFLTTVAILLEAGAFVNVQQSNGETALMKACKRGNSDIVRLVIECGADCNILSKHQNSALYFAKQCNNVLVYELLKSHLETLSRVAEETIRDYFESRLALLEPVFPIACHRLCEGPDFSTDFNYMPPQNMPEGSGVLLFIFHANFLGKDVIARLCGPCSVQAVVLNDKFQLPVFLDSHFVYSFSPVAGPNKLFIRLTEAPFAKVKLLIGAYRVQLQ
# B1: PPHLN1 (periphilin) (protein, UniProt Q8K2H1 1-381)
# chain: MWSEGRYDYDRLPRERVPPRSHPSDGYHRVVNVVPKRPPLLDKRPPLLDKRPPLLARPDEGGYSRYYSHVDCRVCDEGRSFSHDRRSGPSHSGDESGYRWLRDDHSTSRQPDYRDMRDGFRRKSFYSSHYSRDRSPHKRDAPFFRESPVGRKDSPHSRSGSSVSSRSYSPERSRTHSFHQSQHRKSSRVGASYKRQNEAIRGRGKERSIQSVKTSRDASPSSSSAVASSKALDKPSRLTEKELAEAESKWANETLEKSDESNLAEMNEFEAGSTAPLFIDQTEEPESNTVDGTELYEDSQLSNRSKAIASKTKEIEQVYRQDCETFGMVVKMLIEKDPSLEKSVQFALRQNLHEIGERCVEELKRFITEYDNSARDFGDPF
# B2: FIP1L1 (protein, UniProt Q9D824 1-581)
# chain: MSAGEVERLVELSGGTGGDEEEEWLYGGPWDVHVHSDLAKDLDENEVERPEEENASANPPSGIEEEAAENGVAKPKVTETEDDSDSDSDDDEDDVHVTIGDIKTGAPQYGSYGTAPVNLNIKAGGRVYGNTGTKVKGVDLDAPGSINGVPLLEVDLDSFEDKPWRKPGADLSDYFNYGFNEDTWKAYCEKQKRIRMGLEVIPVTSTTNKITVQQGRTGNSEKEAALPSTKAEFTSPPSLFKTGLPPSRNSTSSQSQTSTASRKASSSVGKWQDRYGRAESPDLRRLPGAIDVIGQTITISRVEGRRRANENSNIQVLSDRSATEVDNNFSKPPPFFPPGAPPTHLPPPPFLPPPPTVSTAPPLIPPPGIPITVPPPGFPPPPGAPPPSLIPTIESGHSSGYDSRSARAFPYGNVAFPHLTSSAPSWPSLVDTTKQWDYYARREKDRDRDRERDRDRERERDRDRERERTRERERERDHSPTPSVFNSDEERYRYREYAERGYERHRASREKEERHRERRHREKEETRHKSSRSNSRRRHESEEGDSHRRHKHKKSKRSKEGKEAGSEPVPEQESTEAAPAE
# B3: ATF7IP (protein, UniProt Q7TT18 1-1306)
# chain: MDSVEEPQKKVFKARKTMRASDRQQLDAVHRVKGELLRADGKLLNGSHENGDLDPTSPLENTDCIQDREEVNGIDGICFQSEESTTEWKETPCMPNVAVKNKQEDLNSEALSPSITCDLSSRVTTEPGSGSPASDNPGCGTPVSDNPASDNPASDNPASDNPDSGDLAAGELATTVQATGDSACEEPPSSDPSSSDPTSSEPSSSEPTCSEPISGDPVSEEAASHDLVSGDSTCSEPVSGEPVSHEAASSEPATSEPASDEPVARVVAACELAPGESALDDCAPSGDSQSDEPPSSEDSLPRSVCSGLASGELTPGELSVEPATDTVKPSSSAVCEAGPDPDKTEPSSNNSDDCPGKSEDDEHLDQIQSKDSCDEGNKVNSNVVEKEEPLETHSAIICSDLPPENTTKIAEDPIAEPALEEEAISSSMEVDQSEKDEHKSPAEPVAAVSEDPAEEDKEDTVVDNTDSMETDEIIPILEKLAPTEDELSCFSKASLLPVETSQDLEDKMEGSFGSPSKQESSENLPKEAFLVLSDEEDLSCGKDESEAVAQSKMSTPEGEKSEKDGKAEEEERVPAEEQPPVRNEFSRRKRSKSEDMDSVESKRRRYMDEEYEAEFQVKITAKGDINQKLQKVIQWLLQEKLCALQCAVFDKTLAELKTRVEKIECNKRHKAVLTELQAKIARLTKRFGAAKDDLKKRQESPPNPPISPGKPANDTNSNNNMTYRNAGTVRQLLESKRNVSEGPPPSFQTPVNTVSSASHATSTAVVSSQPKLQTSATSGSLPAAPLLPAPSTATVVATTQVPSGTPQPTISLQPLPVILHVPVAVTSQPQLLQSHPGTLVTNQPSGNVEFISVQSQPTVSGLTKNPVSLPPLPNPTKPNIPSVPSPSSIQRNSSTTAAPLGTTLAVQAVPTAHSIVQATRTSLPTVGPSGLYSSSSSRGPIQMKIPISTFSPPSSAEQNSSATPRIVTENQTNKTVDSSINKKAADSTSQSGKASSSDSSGVIDLTMDDEESGTTQDPKKISPPSSSTVSTSQPMSRPLQPILPAPPLQPSGVPTSGPSQATIHVLPTAPTTVNVTHRPVTQVTTRLPVPRAPANHQVVYTTLPAPTTQAPLRGTVMQAPAVRQVNPQNSVTVRVPQTTTYVVNNGLTLGSAGPQLTVHHRPPQVHNEPPRPLHPAPLPEAPQPQRLPPEAASTSLPQKPHLKLARVQSQNGIVLSWSVLEVDRSCATVDSYHLYAYHEEPSATVPSQWKKIGEVKALPLPMACTLTQFVSGSKYYFAVRAKDIYGRFGPFCDPQSTDVISSSQNS
# Tests used:
# [1] = molecular target: T1, MPP8-AGH (MPP8 endogenously tagged at the C terminus with AID-GFP-HAx3) (mouse (endogenous in R1 mESCs)); assay: affinity purification with mass spectrometry; HA IP from TASOR-AGH or MPP8-AGH mESCs against untagged control mESCs; label-free quantification (LFQ)
# [2] = molecular target: TASOR-AGH (TASOR endogenously tagged at the C terminus with AID-GFP-HAx3) (mouse (endogenous in R1 mESCs)) (UniProt Q69ZR9); assay: as above
molecule,measurement,setting,value
WDR82 (from UniProt Q8BFQ4 1-313),binding,[1],binds
same,binding,[2],binds
B1,binding,[1],binds
same,binding,[2],binds
B2,binding,[1],binds
same,binding,[2],binds
B3,binding,[1],binds

# From paper PMC10915761
